The target of test [1] is AcrA^S (soluble AcrA lacking signal peptide and lipidation, Cys25Met) (E. coli) (UniProt P0AE06). The test can be described thus: native MS.
For test [2] the target is unchanged. The test can be described thus: native MS. This is another data set of the same source.

Sequences of proteins named here, by UniProt entry; tags and fusion partners are left off. A change or cut given only in a name is not applied to a line headed by its entry.
UniProt P0AE06, whole entry, looked up, stated change not applied: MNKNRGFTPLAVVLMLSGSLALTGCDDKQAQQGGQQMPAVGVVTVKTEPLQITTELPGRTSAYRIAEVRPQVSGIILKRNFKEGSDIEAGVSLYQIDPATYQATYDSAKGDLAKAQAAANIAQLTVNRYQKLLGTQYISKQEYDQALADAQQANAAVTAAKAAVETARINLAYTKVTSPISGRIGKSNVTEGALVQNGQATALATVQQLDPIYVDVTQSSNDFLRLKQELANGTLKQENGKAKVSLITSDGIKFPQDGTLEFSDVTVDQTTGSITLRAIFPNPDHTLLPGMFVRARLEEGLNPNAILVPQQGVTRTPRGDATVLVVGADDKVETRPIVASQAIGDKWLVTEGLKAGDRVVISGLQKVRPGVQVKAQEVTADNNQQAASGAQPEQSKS

Read-outs that look alike come from different tables or passages of the source. These are yes or no findings as the source states them, for the method shown.

In the case of “AcrA^S (soluble AcrA lacking signal peptide and lipidation, Cys25Met) (from UniProt P0AE06 25-397)”, the binding result in test [1] and in test [2] was “no binding” throughout.
